Entries after “also recorded” stand apart in the source; their conditions may differ. Counter-ions that a name gives are not always drawn.
Tested on: TR-BBB cells
Test: Inhibition of [14C]L-citrulline uptake in TR-BBB cells by unlabeled amino acids, transporter inhibitors and drugs
Type: cell-based, rat
Conditions: for activity at 2000 µM: Rattus norvegicus, 5 min, pH 7.4, read-out: Uptake of [14C]L-citrulline (% of control); for Effect on [14C]L-citrulline uptake: TR-BBB cells, unlabeled compound present
Procedure: The TR-BBB cells established from transgenic rats harboring the temperature-sensitive simian virus 40 large T-antigen, an in vitro BBB model, were cultured at 33 °C as described previously (21). TR-BBB cells were received from Professor Tetsuya Terasaki (Tohoku University, Japan) and were cultured with Dulbecco’s modified Eagle’s medium (Invitrogen, San Diego, CA), supplemented with 10% fetal bovine serum, 100 U/mL penicillin, 100 μg/mL streptomycin (Invitrogen, San Diego, CA) and 15 μg/L endothelial cell growth factor (Roche, Mannheim, Germany) at 33 °C in a humidified atmosphere of 5% CO2/air. On rat tail collagen type I-coated 24 well culture plates (IWAKI, Tokyo, Japan) initial seeding was carried out at 1 × 10^5 cells/well for the uptake study. After incubation for 2 days at 33 °C, the cultures became confluent and then they were used in the transport study. L-Citrulline free medium was used all experiments except for experiments on saturation kinetics of [^14C]L-citrulline uptake (Fig. 2), Lineweaver-Burk plots for [^14C]L-citrulline uptake (Fig. 4), or inhibitory effect of L-amino acids as a control (Table 2).
The [^14C] L-citrulline uptake study was performed according to the previous report. Briefly, extracellular fluid (ECF) buffer containing [^14C]L-citrulline (44.4 μM) in the presence or absence of unlabeled inhibitors was added to the TR-BBB cells and then incubated at pH 7.4 and 37 °C for the designated time (5 min). Uptake was terminated by the addition of ice-cold ECF buffer. A Na^+ free transport medium was prepared by using LiCl, choline chloride, sodium gluconate and KHCO3 instead of NaCl and NaHCO3, respectively. The cells were then solubilized by incubation overnight in 750 μL of 1 N NaOH at room temperature, and the measurement of radioactivity was performed in a liquid scintillation counter (LS6500; Beckman, Fullerton, CA). Cell to medium ratio (μL/mg protein) was calculated as follows: the radioactivity (dpm/μL) in the sample per milligram cell protein (dpm/mg protein).
To analyze the competitive nature of L-dopa and gabapentin for [^14C]L-citrulline uptake, Lineweaver-Burk plots were generated. The inhibitory constant (K i) was calculated from Eq. (2):2 V=Vmax⋅C/Km⋅1+I/Ki+C where I corresponds to the concentration of L-dopa or gabapentin, respectively.

| Structure (SMILES) | activity at 2000 µM | Effect on [14C]L-citrulline uptake |
| --- | --- | --- |
| COc1cc2c(cc1OC)C(=O)C(CC1CCN(Cc3ccccc3)CC1)C2 (stereo not shown) [Donepezil, Donepezil hydrochloride] | 85.5 ± 5.9% | no significant inhibition effect |
| Nc1nc2ccc(OC(F)(F)F)cc2s1 [Riluzole, 2-amino-6-trifluoromethoxy benzothiazole] | 93.9 ± 8.3% | no effect; also recorded: no significant effects |
